Reference: publication PMC5660450
Results are given in words; binding and its absence hold for the method and conditions named. In cells and extracts the contact can be indirect. Some entries that bind do so weakly or less than the wild type.

By UniProt entry, the sequences of proteins in these tests, tags left out.
UniProt P70315: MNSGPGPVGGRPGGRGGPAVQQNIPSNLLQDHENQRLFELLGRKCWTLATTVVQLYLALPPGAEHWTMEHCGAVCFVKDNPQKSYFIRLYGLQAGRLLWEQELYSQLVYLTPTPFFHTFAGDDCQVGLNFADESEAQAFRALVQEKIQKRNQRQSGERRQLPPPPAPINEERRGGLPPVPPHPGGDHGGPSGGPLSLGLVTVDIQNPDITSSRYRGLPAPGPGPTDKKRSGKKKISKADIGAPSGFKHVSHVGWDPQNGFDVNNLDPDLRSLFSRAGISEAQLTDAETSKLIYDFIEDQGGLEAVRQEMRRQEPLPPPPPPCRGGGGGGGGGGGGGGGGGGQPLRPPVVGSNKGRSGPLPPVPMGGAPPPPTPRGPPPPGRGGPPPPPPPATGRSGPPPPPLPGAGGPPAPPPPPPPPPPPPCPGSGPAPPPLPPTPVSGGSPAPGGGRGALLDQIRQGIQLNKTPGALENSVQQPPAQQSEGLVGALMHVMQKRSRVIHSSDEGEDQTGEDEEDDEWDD
UniProt Q00417: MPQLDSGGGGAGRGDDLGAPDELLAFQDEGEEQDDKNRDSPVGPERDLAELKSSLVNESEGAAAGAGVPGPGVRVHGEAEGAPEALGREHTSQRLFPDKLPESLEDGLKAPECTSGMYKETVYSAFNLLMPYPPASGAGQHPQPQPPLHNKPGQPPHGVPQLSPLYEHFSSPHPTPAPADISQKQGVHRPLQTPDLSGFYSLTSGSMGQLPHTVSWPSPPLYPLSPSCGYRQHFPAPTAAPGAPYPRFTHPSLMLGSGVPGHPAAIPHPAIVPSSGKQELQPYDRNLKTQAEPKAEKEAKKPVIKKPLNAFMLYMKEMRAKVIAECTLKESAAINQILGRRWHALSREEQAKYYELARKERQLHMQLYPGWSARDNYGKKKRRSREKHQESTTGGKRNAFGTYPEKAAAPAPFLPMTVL

Target: Wiskott–Aldrich syndrome protein (mouse (endogenous in thymocytes)) (UniProt P70315)
Experiment: co-IP; WASp immunoprecipitated with the WASp F-8 Ab from mouse thymocyte nuclear extracts, protein G-Sepharose, 10 h + 4 h at 4 °C, three washes in cold PBS; western blot for TCF1; mouse IgG2A as isotype control IP

binding: binds
Sequence: T cell factor 1 (from UniProt Q00417 1-419)
